# Article PMC8384837
# Substitutions are numbered along the chain they refer to. This is one part of the list. At the low end of the ranking the order means little.
# What was measured:
# Conditions in all cases: yeast three-hybrid, YBZ-1, SC-Leu-His + 0.5 mM 3-AT, 4 days
# [1] = target: T1, PUM1 PUF domain R3-RSD C935R + R936S + Q939D (UniProt Q14671)
# T1 sequence: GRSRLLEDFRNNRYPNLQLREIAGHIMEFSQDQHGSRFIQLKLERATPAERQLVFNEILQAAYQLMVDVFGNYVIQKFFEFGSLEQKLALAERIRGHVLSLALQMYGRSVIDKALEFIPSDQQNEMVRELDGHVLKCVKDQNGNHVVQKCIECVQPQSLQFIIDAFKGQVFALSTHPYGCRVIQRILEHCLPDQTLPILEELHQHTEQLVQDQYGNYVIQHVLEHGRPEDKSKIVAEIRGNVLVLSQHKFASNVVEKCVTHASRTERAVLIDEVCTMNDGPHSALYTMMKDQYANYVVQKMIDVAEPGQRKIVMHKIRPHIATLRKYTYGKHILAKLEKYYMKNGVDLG
# [2] = target: T2, PUM1 PUF domain R3-RSF C935R + R936S + Q939F (UniProt Q14671)
# T2 sequence: T1 sequence with D112F
# [3] = target: T3, PUM1 PUF domain R3-RSQ C935R + R936S (UniProt Q14671)
# T3 sequence: T1 sequence with D112Q
# [4] = target: T4, PUM1 PUF domain R3-RSW C935R + R936S + Q939W (UniProt Q14671)
# T4 sequence: T1 sequence with D112W
# [5] = target: T5, PUM1 PUF domain R3-RTF C935R + R936T + Q939F (UniProt Q14671)
# T5 sequence: T1 sequence with S109T, D112F
# [6] = target: T6, PUM1 PUF domain R3-RTW C935R + R936T + Q939W (UniProt Q14671)
# T6 sequence: T1 sequence with S109T, D112W
# [7] = target: T7, PUM1 PUF domain R3-RVN C935R + R936V + Q939N (UniProt Q14671)
# T7 sequence: T1 sequence with S109V, D112N
# [8] = target: T8, PUM1 PUF domain R3-SEE C935S + R936E + Q939E (UniProt Q14671)
# T8 sequence: T1 sequence with R108S, S109E, D112E
# [9] = target: T9, PUM1 PUF domain R3-SIR C935S + R936I + Q939R (UniProt Q14671)
# T9 sequence: T1 sequence with R108S, S109I, D112R
# [10] = target: T10, PUM1 PUF domain R3-SLE C935S + R936L + Q939E (UniProt Q14671)
# T10 sequence: T1 sequence with R108S, S109L, D112E
# [11] = target: T11, PUM1 PUF domain R3-SSK C935S + R936S + Q939K (UniProt Q14671)
# T11 sequence: T1 sequence with R108S, D112K
# [12] = target: T12, PUM1 PUF domain R3-TSE C935T + R936S + Q939E (UniProt Q14671)
# T12 sequence: T1 sequence with R108T, D112E
# [13] = target: T13, PUM1 PUF domain R3-TTE C935T + R936T + Q939E (UniProt Q14671)
# T13 sequence: T1 sequence with R108T, S109T, D112E
# [14] = target: T14, PUM1 PUF domain R3-TVE C935T + R936V + Q939E (UniProt Q14671)
# T14 sequence: T1 sequence with R108T, S109V, D112E
# [15] = target: T15, PUM1 PUF domain R3-WCA C935W + R936C + Q939A (UniProt Q14671)
# T15 sequence: T1 sequence with R108W, S109C, D112A
# [16] = target: T16, PUM1 PUF domain R3-YCD C935Y + R936C + Q939D (UniProt Q14671)
# T16 sequence: T1 sequence with R108Y, S109C
# [17] = target: T17, PUM1 PUF domain R3-YCV C935Y + R936C + Q939V (UniProt Q14671)
# T17 sequence: T1 sequence with R108Y, S109C, D112V
# [18] = target: T18, PUM1 PUF domain R4-RMR N971R + H972M + Q975R (UniProt Q14671)
# T18 sequence: T1 sequence with R108C, S109R, D112Q, N144R, H145M, Q148R
# [19] = target: T19, PUM1 PUF domain R4-SMR N971S + H972M + Q975R (UniProt Q14671)
# T19 sequence: T1 sequence with R108C, S109R, D112Q, N144S, H145M, Q148R
# [20] = target: T20, PUM1 PUF domain R4-VYG N971V + H972Y + Q975G (UniProt Q14671)
# T20 sequence: T1 sequence with R108C, S109R, D112Q, N144V, H145Y, Q148G
sequence,measurement,setting,value
GGCUAGAACUAGUGGAUCCCCCGGCGCCCGGCGGCUCGAGCCCGGGUAAGUGUAAAUAGUCUGCAUGCCGCCGGGCGCCAUGCCUGCAGGUCGACUCUAGAAAACAUG,binding signal (log2 enrichment (interaction score)),[1],< -8.33
same,binding signal (log2 enrichment (interaction score)),[2],< -7.45
same,binding signal (log2 enrichment (interaction score)),[3],< -6.63
same,binding signal (log2 enrichment (interaction score)),[4],< -9.22
same,binding signal (log2 enrichment (interaction score)),[5],< -7.22
same,binding signal (log2 enrichment (interaction score)),[6],< -8.22
same,binding signal (log2 enrichment (interaction score)),[7],< -6.43
same,binding signal (log2 enrichment (interaction score)),[8],< -8.17
same,binding signal (log2 enrichment (interaction score)),[9],< -8.19
same,binding signal (log2 enrichment (interaction score)),[10],< -7.54
same,binding signal (log2 enrichment (interaction score)),[11],< -7.8
same,binding signal (log2 enrichment (interaction score)),[12],< -9.14
same,binding signal (log2 enrichment (interaction score)),[13],< -7.54
same,binding signal (log2 enrichment (interaction score)),[14],< -9.17
same,binding signal (log2 enrichment (interaction score)),[15],< -7.76
same,binding signal (log2 enrichment (interaction score)),[16],< -7.28
same,binding signal (log2 enrichment (interaction score)),[17],< -8.18
same,binding signal (log2 enrichment (interaction score)),[18],-5.95
same,binding signal (log2 enrichment (interaction score)),[19],-5.91
same,binding signal (log2 enrichment (interaction score)),[20],-5.26

# Part of the list above, reformatted.
sequence | measurement | setting | value
GGCUAGAACUAGUGGAUCCCCCGGCGCCCGGCGGCUCGAGCCCGGGUAAGUGUAAAUAGUCUGCAUGCCGCCGGGCGCCAUGCCUGCAGGUCGACUCUAGAAAACAUG | binding signal (log2 enrichment (interaction score)) | [3] | < -6.63
same | binding signal (log2 enrichment (interaction score)) | [4] | < -9.22
